Among the data in PubChem BioAssay AID188 (DTP/NCI, 2004) are survivor count values, retold here.

The test relates to CD2F1 mice, nontumored, toxicity/survival. In words: NCI In Vivo Anticancer Drug Screen. Data for tumor model Nontumored Animals (Toxicity Test) in CD2F1 (CDF1) mice.

Shown are survivors of the treated group in tumour-free mice. Counts of survivors are from the toxicity check (mostly the fifth day) where no day follows; animals may have died later. Schedule codes are those of the source, taken here to give the interval after Q, in days (D) or hours (H), and the number of doses after X.

In the case of `O=C1N[C@@H]([C@H]2CC[C@H](Cl)CN2)C(=O)N[C@H]1[C@H]1CC[C@H](Cl)CN1`, the survivor count is, setting by setting: (dose: 0.25 mg/kg/injection, schedule: Q01DX009 (iv), vehicle: saline) 8 of 8; (dose: 0.25 mg/kg/injection, schedule: Q03HX016 (ip), vehicle: saline) 8 of 8; (dose: 0.25 mg/kg/injection, schedule: Q03HX024 (ip), vehicle: saline) 8 of 8; (dose: 0.5 mg/kg/injection, schedule: Q01DX009 (ip), vehicle: saline) 8 of 8; (dose: 0.5 mg/kg/injection, schedule: Q01DX009 (iv), vehicle: saline) 8 of 8; (dose: 0.5 mg/kg/injection, schedule: Q01DX009 (oral), vehicle: saline) 8 of 8. In addition, the survivor count is listed as 8 of 8 (dose: 0.5 mg/kg/injection, schedule: Q01DX009 (sc), vehicle: saline); 8 of 8 (dose: 0.5 mg/kg/injection, schedule: Q03HX008 (ip), vehicle: saline); 8 of 8 (dose: 0.5 mg/kg/injection, schedule: Q03HX016 (ip), vehicle: saline); 8 of 8 (dose: 0.5 mg/kg/injection, schedule: Q03HX024 (ip), vehicle: saline); 8 of 8 (dose: 1.0 mg/kg/injection, schedule: Q01DX001 (iv), vehicle: saline); 8 of 8 (dose: 1.0 mg/kg/injection, schedule: Q01DX009 (ip), vehicle: saline). For the same compound, the survivor count by setting is: (dose: 1.0 mg/kg/injection, schedule: Q01DX009 (iv), vehicle: saline) 8 of 8; (dose: 1.0 mg/kg/injection, schedule: Q01DX009 (oral), vehicle: saline) 8 of 8; (dose: 1.0 mg/kg/injection, schedule: Q01DX009 (sc), vehicle: saline) 8 of 8; (dose: 1.0 mg/kg/injection, schedule: Q03HX008 (ip), vehicle: saline) 8 of 8; (dose: 1.0 mg/kg/injection, schedule: Q03HX016 (ip), vehicle: saline) 8 of 8; (dose: 1.0 mg/kg/injection, schedule: Q03HX024 (ip), vehicle: saline) 8 of 8. Also, the survivor count is, setting by setting: (dose: 1.0 mg/kg/injection, schedule: Q04DX003 (ip), vehicle: saline) 8 of 8; (dose: 1.0 mg/kg/injection, schedule: Q08DX002 (ip), vehicle: saline) 8 of 8; (dose: 2.0 mg/kg/injection, schedule: Q01DX001 (ip), vehicle: saline) 8 of 8; (dose: 2.0 mg/kg/injection, schedule: Q01DX001 (iv), vehicle: saline) 8 of 8; (dose: 2.0 mg/kg/injection, schedule: Q01DX001 (oral), vehicle: saline) 8 of 8; (dose: 2.0 mg/kg/injection, schedule: Q01DX001 (sc), vehicle: saline) 8 of 8. Also, the survivor count was 8 of 8 (dose: 2.0 mg/kg/injection, schedule: Q01DX009 (ip), vehicle: saline); 8 of 8 (dose: 2.0 mg/kg/injection, schedule: Q01DX009 (iv), vehicle: saline); 8 of 8 (dose: 2.0 mg/kg/injection, schedule: Q01DX009 (oral), vehicle: saline); 8 of 8 (dose: 2.0 mg/kg/injection, schedule: Q01DX009 (sc), vehicle: saline); 8 of 8 (dose: 2.0 mg/kg/injection, schedule: Q03HX008 (ip), vehicle: saline); 8 of 8 (dose: 2.0 mg/kg/injection, schedule: Q03HX016 (ip), vehicle: saline). The survivor count runs as follows: (dose: 2.0 mg/kg/injection, schedule: Q03HX024 (ip), vehicle: saline) 8 of 8; (dose: 2.0 mg/kg/injection, schedule: Q04DX003 (ip), vehicle: saline) 8 of 8; (dose: 2.0 mg/kg/injection, schedule: Q08DX002 (ip), vehicle: saline) 8 of 8; (dose: 4.0 mg/kg/injection, schedule: Q01DX001 (ip), vehicle: saline) 8 of 8; (dose: 4.0 mg/kg/injection, schedule: Q01DX001 (iv), vehicle: saline) 8 of 8; (dose: 4.0 mg/kg/injection, schedule: Q01DX001 (oral), vehicle: saline) 8 of 8. Also, the survivor count (dose: 4.0 mg/kg/injection, schedule: Q01DX001 (sc), vehicle: saline) is listed as 8 of 8; the survivor count (dose: 4.0 mg/kg/injection, schedule: Q01DX009 (ip), vehicle: saline) is given as 8 of 8; the survivor count (dose: 4.0 mg/kg/injection, schedule: Q01DX009 (iv), vehicle: saline) is 8 of 8; the survivor count (dose: 4.0 mg/kg/injection, schedule: Q01DX009 (oral), vehicle: saline) is reported as 8 of 8; the survivor count (dose: 4.0 mg/kg/injection, schedule: Q01DX009 (sc), vehicle: saline) is on record as 8 of 8; the survivor count (dose: 4.0 mg/kg/injection, schedule: Q03HX008 (ip), vehicle: saline) is listed as 8 of 8. Further, the survivor count reads like this: (dose: 4.0 mg/kg/injection, schedule: Q03HX016 (ip), vehicle: saline) 2 of 8; (dose: 4.0 mg/kg/injection, schedule: Q03HX024 (ip), vehicle: saline) 4 of 8; (dose: 4.0 mg/kg/injection, schedule: Q04DX003 (ip), vehicle: saline) 8 of 8; (dose: 4.0 mg/kg/injection, schedule: Q08DX002 (ip), vehicle: saline) 8 of 8; (dose: 4.4 mg/kg/injection, schedule: Q01DX001 (ip), vehicle: saline) 10 of 10; (dose: 6.6 mg/kg/injection, schedule: Q01DX001 (ip), vehicle: saline) 10 of 10. Besides, the survivor count reads like this: (dose: 8.0 mg/kg/injection, schedule: Q01DX001 (ip), vehicle: saline) 8 of 8; (dose: 8.0 mg/kg/injection, schedule: Q01DX001 (iv), vehicle: saline) 8 of 8; (dose: 8.0 mg/kg/injection, schedule: Q01DX001 (oral), vehicle: saline) 8 of 8; (dose: 8.0 mg/kg/injection, schedule: Q01DX001 (sc), vehicle: saline) 8 of 8; (dose: 8.0 mg/kg/injection, schedule: Q01DX009 (ip), vehicle: saline) 7 of 8; (dose: 8.0 mg/kg/injection, schedule: Q01DX009 (oral), vehicle: saline) 8 of 8. The survivor count (dose: 8.0 mg/kg/injection, schedule: Q01DX009 (sc), vehicle: saline) is listed as 7 of 8; the survivor count (dose: 8.0 mg/kg/injection, schedule: Q03HX008 (ip), vehicle: saline) was 7 of 8; the survivor count (dose: 8.0 mg/kg/injection, schedule: Q04DX003 (ip), vehicle: saline) was 8 of 8; the survivor count (dose: 8.0 mg/kg/injection, schedule: Q08DX002 (ip), vehicle: saline) is 8 of 8; the survivor count (dose: 10.0 mg/kg/injection, schedule: Q01DX001 (ip), vehicle: saline) is recorded as 10 of 10; the survivor count (dose: 16.0 mg/kg/injection, schedule: Q01DX001 (ip), vehicle: saline) is recorded as 5 of 8. Moreover, the survivor count (dose: 16.0 mg/kg/injection, schedule: Q01DX001 (iv), vehicle: saline) is on record as 8 of 8; the survivor count (dose: 16.0 mg/kg/injection, schedule: Q01DX001 (oral), vehicle: saline) is given as 5 of 8; the survivor count (dose: 16.0 mg/kg/injection, schedule: Q01DX001 (sc), vehicle: saline) is recorded as 3 of 8; the survivor count (dose: 16.0 mg/kg/injection, schedule: Q04DX003 (ip), vehicle: saline) is reported as 6 of 8; the survivor count (dose: 16.0 mg/kg/injection, schedule: Q08DX002 (ip), vehicle: saline) is recorded as 5 of 8; the survivor count (dose: 32.0 mg/kg/injection, schedule: Q01DX001 (ip), vehicle: saline) is given as 4 of 8. Also, the survivor count is, setting by setting: (dose: 32.0 mg/kg/injection, schedule: Q01DX001 (oral), vehicle: saline) 2 of 8; (dose: 32.0 mg/kg/injection, schedule: Q01DX001 (sc), vehicle: saline) 5 of 8.
Regarding `CC(=O)Nc1nc(Br)c2ccccc2c1-c1ccc(N(CCO)CCO)cc1`, the survivor count reads like this: (dose: 1.0 mg/kg/injection, schedule: Q01DX001 (ip), vehicle: other) 2 of 2; (dose: 10.0 mg/kg/injection, schedule: Q01DX001 (ip), vehicle: other) 2 of 2; (dose: 100.0 mg/kg/injection, schedule: Q01DX001 (ip), vehicle: other) 2 of 2.
On to `O=P1(NCCCl)OCCCN1CCCl` (stereo unspecified), for which the survivor count is given as 10 of 10 (dose: 133.0 mg/kg/injection, schedule: Q01DX001 (ip), vehicle: saline); 10 of 10 (dose: 200.0 mg/kg/injection, schedule: Q01DX001 (ip), vehicle: saline); 10 of 10 (dose: 300.0 mg/kg/injection, schedule: Q01DX001 (ip), vehicle: saline); 10 of 10 (dose: 450.0 mg/kg/injection, schedule: Q01DX001 (ip), vehicle: saline).
For the compound `N#Cc1ccccc1C(C#N)c1ccc([N+](=O)[O-])cc1` (stereo unspecified), the survivor count by setting is: (dose: 1.0 mg/kg/injection, schedule: Q01DX001 (ip), vehicle: saline with Tween-80) 2 of 2; (dose: 10.0 mg/kg/injection, schedule: Q01DX001 (ip), vehicle: saline with Tween-80) 2 of 2; (dose: 100.0 mg/kg/injection, schedule: Q01DX001 (ip), vehicle: saline with Tween-80) 2 of 2.
Turning to `CN1CCc2cc(O)cc3c2C1Cc1ccc(O)c(O)c1-3` (stereo unspecified), the survivor count is, setting by setting: (dose: 1.0 mg/kg/injection, schedule: Q01DX001 (ip), vehicle: DMSO) 2 of 2; (dose: 10.0 mg/kg/injection, schedule: Q01DX001 (ip), vehicle: DMSO) 2 of 2; (dose: 100.0 mg/kg/injection, schedule: Q01DX001 (ip), vehicle: DMSO) 2 of 2.
